This experiment has as its system L1210 leukemia ip in BDF1 mice, survival T/C. Put plainly: NCI In Vivo Anticancer Drug Screen. Data for tumor model L1210 Leukemia (intraperitoneal) in B6D2F1 (BDF1) mice. The conditions noted are these: T/C endpoint: mean survival time, higher T/C = longer survival.
Where [1] appears, read: dose: 200.0 mg/kg/injection, schedule: Q04DX003 (ip), vehicle: Klucel (hydroxypropylcellulose) (HPC).
[2] abbreviates: dose: 300.0 mg/kg/injection, schedule: Q01DX001 (ip), vehicle: saline.
The mark [3] stands for this setting: dose: 400.0 mg/kg/injection, schedule: Q04DX003 (ip), vehicle: saline with Tween-80.
Setting [4] is: dose: 400.0 mg/kg/injection, schedule: Q01DX009 (ip), vehicle: Klucel (hydroxypropylcellulose) (HPC).
Setting [5] is: dose: 200.0 mg/kg/injection, schedule: Q01DX009 (ip), vehicle: saline.
[6] abbreviates: dose: 100.0 mg/kg/injection, schedule: Q01DX001 (ip), vehicle: Klucel (hydroxypropylcellulose) (HPC).

The values that follow come from PubChem BioAssay AID248 (DTP/NCI, 2004).

The list does not hold the whole screen: it is rich in T/C values a quarter to a half above the control, in often repeated tests (any T/C) and in doses without a T/C. Other doses and runs of a compound stand elsewhere. T/C: endpoint of the treated group in % of that of the vehicle group. Some entries give survivors of the animals treated and no T/C: the source files T/C as zero there, which appears to mark a toxic dose or a test without result, not a measured value. Some survivor counts are full or nearly so, which does not show that the dose was tolerated: survival well below the control is almost never listed, so the zero probably covers shortened survival too. Survivors were counted at the toxicity check, usually on the fifth day, unless a day is given; later deaths do not show. Schedule codes are those of the source, taken here to give the interval after Q, in days (D) or hours (H), and the number of doses after X. Some schedules carry Z or #; the key to these is not given. Some molecules as drawn cover several salts, stereoisomers or complexes of the source; a dose is that of the sample tested. Some doses were run more than once; the results are listed from low to high. For survival time, the PubChem record calls one and a half times the control and up active, and a quarter to a half above the control has no call in these data; cut-offs in other NCI protocols can differ. Some T/C values are followed by the survivors on the day toxicity was checked, most often the fifth; without a count, all were alive then.

In the case of `CN(CCCl)Cc1ccccc1`, the T/C (dose: 12.3 mg/kg/injection, schedule: Q01DX Z (ip), vehicle: methylcellulose (MC)) was 114, 114 [5 of 6 alive], 129, 131 % of control; the T/C (dose: 18.8 mg/kg/injection, schedule: Q01DX Z (ip), vehicle: methylcellulose (MC)) is 129 % of control [5 of 6 alive]; the T/C (dose: 28.0 mg/kg/injection, schedule: Q01DX Z (ip), vehicle: methylcellulose (MC)) was 131 % of control; the T/C (dose: 42.0 mg/kg/injection, schedule: Q01DX Z (ip), vehicle: methylcellulose (MC)) was 98, 100, 105, 114 % of control [5 of 6 alive]. The survivor count is, setting by setting: (dose: 100.0 mg/kg/injection, schedule: Q01DX009 (ip), vehicle: Klucel (hydroxypropylcellulose) (HPC)) 5 of 6; under setting [1], 1 of 6.

Take `CCC1=C(CC2NCCc3cc(OC)c(OC)cc32)CC2c3ccccc3CCN2C1` (configuration not stated): the survivor count under setting [2] was 0 of 6 and 2 of 6.

On to `O=C(Cl)c1ccc([N+](=O)[O-])cc1`, for which the survivor count under setting [3] was 2 of 6.

Take `O=c1[nH]c(=O)c2n[nH]nc2[nH]1`: the survivor count (dose: 31.0 mg/kg/injection, schedule: Q01DX015 (ip), vehicle: carboxymethylcellulose (CMC)) is given as 6 of 6; the survivor count (dose: 62.0 mg/kg/injection, schedule: Q01DX015 (ip), vehicle: carboxymethylcellulose (CMC)) is listed as 6 of 6; the survivor count (dose: 125.0 mg/kg/injection, schedule: Q01DX015 (ip), vehicle: carboxymethylcellulose (CMC)) is recorded as 6 of 6; the survivor count (dose: 250.0 mg/kg/injection, schedule: Q01DX015 (ip), vehicle: carboxymethylcellulose (CMC)) is 6 of 6; the survivor count (dose: 500.0 mg/kg/injection, schedule: Q01DX015 (ip), vehicle: carboxymethylcellulose (CMC)) is 6 of 6.

Regarding `O=C(COc1ccc(Cl)cc1)Nc1ccc[n+](Cc2ccc(S(=O)(=O)F)cc2)c1`, under setting [4], the survivor count was 6 of 6.

In the case of `Cc1cc(CCl)c(C)c(Br)c1C`, the survivor count is given as 1 of 6 (dose: 75.0 mg/kg/injection, schedule: Q01DX009 (ip), vehicle: Klucel (hydroxypropylcellulose) (HPC)); 0 of 6 (dose: 150.0 mg/kg/injection, schedule: Q01DX009 (ip), vehicle: Klucel (hydroxypropylcellulose) (HPC)); 0 of 6 (dose: 300.0 mg/kg/injection, schedule: Q01DX009 (ip), vehicle: Klucel (hydroxypropylcellulose) (HPC)).

For `CCOC(=O)c1nc2c(OC)nn(O)cc-2c1[N+](=O)[O-]`, under “dose: 50.0 mg/kg/injection, schedule: Q04DX002 (ip), vehicle: saline with Tween-80”, the survivor count is recorded as 3 of 3.

For the molecule `CCCCN(C)/N=N/c1nc[nH]c1C(N)=O`, the T/C by setting is: (dose: 12.0 mg/kg/injection, schedule: Q01DX009 (ip), vehicle: other) 127 % of control; (dose: 21.0 mg/kg/injection, schedule: Q01DX009 (ip), vehicle: other) 132 % of control; (dose: 24.5 mg/kg/injection, schedule: Q01DX009 (ip), vehicle: saline with Tween-80) 128 % of control; (dose: 40.0 mg/kg/injection, schedule: Q01DX009 (ip), vehicle: carboxymethylcellulose (CMC)) 128 % of control; (dose: 60.0 mg/kg/injection, schedule: Q01DX009 (ip), vehicle: carboxymethylcellulose (CMC)) 135 % of control; (dose: 80.0 mg/kg/injection, schedule: Q01DX009 (ip), vehicle: carboxymethylcellulose (CMC)) 146 % of control. In addition, the T/C reads like this: (dose: 133.0 mg/kg/injection, schedule: Q01DX001 (ip), vehicle: other) 129 % of control; (dose: 200.0 mg/kg/injection, schedule: Q01DX001 (ip), vehicle: other) 140 and 141 % of control; (dose: 212.0 mg/kg/injection, schedule: Q01DX001 (ip), vehicle: saline with Tween-80) 130 % of control; (dose: 300.0 mg/kg/injection, schedule: Q01DX001 (ip), vehicle: carboxymethylcellulose (CMC)) 131 % of control; (dose: 300.0 mg/kg/injection, schedule: Q01DX001 (ip), vehicle: other) 126 % of control.

Take `C[Si](C)(O)CCl`: the survivor count runs as follows: (dose: 150.0 mg/kg/injection, schedule: Q01DX001 (ip), vehicle: saline) 0 of 6; under setting [2], 2 of 6.

For the molecule `C=CCCCCCCCCC(=O)NC(C)C(C)(C)C` (configuration not stated), under setting [3], the survivor count is 6 of 6.

Regarding `CCCCCCCCCCCCCC(=O)OC1C(CO)OC2C1Oc1nc(=N)ccn12` (configuration not stated), the T/C (dose: 12.5 mg/kg/injection, schedule: Q01DX009 (ip), vehicle: other) is 130 % of control.

In the case of `Nc1nc(N)c2cc(CCc3ccc(C(=O)NC(CCC(=O)O)C(=O)O)cc3)ccc2n1` (configuration not stated), for the setting “dose: 313.0 micrograms/kg/injection, schedule: Q01DX009 (ip), vehicle: Klucel (hydroxypropylcellulose) (HPC)”, the T/C is 128 % of control.

On to `CCN(CC)CCOc1cccc(Oc2ccccc2)c1`, for which the survivor count is, setting by setting: under setting [5], 0 of 6; (dose: 200.0 mg/kg/injection, schedule: Q04DX003 (ip), vehicle: saline) 4 of 6; (dose: 400.0 mg/kg/injection, schedule: Q04DX003 (ip), vehicle: saline) 0 of 6.

Regarding `O=C(Nc1cccc(C2=NCCCN2)c1)c1ccc(C(=O)Nc2cccc(C3=NCCCN3)c2)cc1`, the survivor count runs as follows: (dose: 0.5 mg/kg/injection, schedule: Q01DX Z (ip), vehicle: saline) 0 of 6; (dose: 0.8 mg/kg/injection, schedule: Q01DX Z (ip), vehicle: saline) 1 of 6; (dose: 1.2 mg/kg/injection, schedule: Q01DX Z (ip), vehicle: saline) 0 of 6; (dose: 1.77 mg/kg/injection, schedule: Q01DX Z (ip), vehicle: saline) 0 of 6; (dose: 2.66 mg/kg/injection, schedule: Q01DX Z (ip), vehicle: saline) 0 of 6; (dose: 4.0 mg/kg/injection, schedule: Q01DX Z (ip), vehicle: saline) 0 of 6. In addition, the survivor count is 0 of 6 (dose: 6.0 mg/kg/injection, schedule: Q01DX Z (ip), vehicle: saline); 0 of 6 (dose: 10.0 mg/kg/injection, schedule: Q01DX Z (ip), vehicle: saline); 0 of 6 (dose: 15.0 mg/kg/injection, schedule: Q01DX Z (ip), vehicle: saline); 0 of 6 (dose: 22.0 mg/kg/injection, schedule: Q01DX Z (ip), vehicle: saline).

`CCC[CH2][Sn]([CH2]CCC)([CH2]CCC)[CH2]CC(N)=O`: under setting [5], the survivor count is reported as 1 of 3.

With `Clc1ccc2c(c1)C(Br)c1cc(Cl)cc(Cl)c1-2` (configuration not stated), the survivor count was 6 of 6 (dose: 200.0 mg/kg/injection, schedule: Q01DX001 (ip), vehicle: acetone) and 6 of 6 (dose: 400.0 mg/kg/injection, schedule: Q01DX001 (ip), vehicle: acetone).

Consider `CC12CCC(O)CC1CCC1C2CCC2(C)C(C3=CC(=O)OC3)CCC12O` (configuration not stated), for which the survivor count is, setting by setting: (dose: 100.0 mg/kg/injection, schedule: Q04DX003 (ip), vehicle: Klucel (hydroxypropylcellulose) (HPC)) 0 of 3; under setting [1], 0 of 3; (dose: 400.0 mg/kg/injection, schedule: Q04DX003 (ip), vehicle: Klucel (hydroxypropylcellulose) (HPC)) 0 of 3.

As for `N=C(N)SCCCCSC(=N)N`, the survivor count reads like this: under setting [5], 2 of 6; (dose: 400.0 mg/kg/injection, schedule: Q01DX009 (ip), vehicle: saline) 0 of 6.

Regarding `COc1ccccc1C(=O)NC(=S)Nc1ccc(Cl)c(Cl)c1`, the survivor count is, setting by setting: under setting [6], 6 of 6; under setting [4], 5 of 6.

For the molecule `N#Cc1ccccc1NC(=S)Nc1ccc([N+](=O)[O-])cc1`, the survivor count is 3 of 3 (dose: 100.0 mg/kg/injection, schedule: Q01DX009 (ip), vehicle: saline with Tween-80) and 0 of 3 (dose: 200.0 mg/kg/injection, schedule: Q01DX009 (ip), vehicle: saline with Tween-80).

Regarding `NC1=NCN(c2ccc(CCCCc3ccccc3)cc2)C(N)=N1`, the survivor count is recorded as 2 of 6 under setting [6]; 0 of 6 (dose: 200.0 mg/kg/injection, schedule: Q01DX001 (ip), vehicle: Klucel (hydroxypropylcellulose) (HPC)); 0 of 6 (dose: 400.0 mg/kg/injection, schedule: Q01DX001 (ip), vehicle: Klucel (hydroxypropylcellulose) (HPC)).
